The text below walks through data of paper PMC6065180, “An allosteric propofol-binding site in kinesin disrupts kinesin-mediated processive movement on microtubules” (The Journal of Biological Chemistry, 2018).

The chains behind the UniProt entries cited, without tags or fusion partners. Where a name states a change or a piece, a line headed by the entry shows the natural chain unless it says otherwise.
UniProt P81948: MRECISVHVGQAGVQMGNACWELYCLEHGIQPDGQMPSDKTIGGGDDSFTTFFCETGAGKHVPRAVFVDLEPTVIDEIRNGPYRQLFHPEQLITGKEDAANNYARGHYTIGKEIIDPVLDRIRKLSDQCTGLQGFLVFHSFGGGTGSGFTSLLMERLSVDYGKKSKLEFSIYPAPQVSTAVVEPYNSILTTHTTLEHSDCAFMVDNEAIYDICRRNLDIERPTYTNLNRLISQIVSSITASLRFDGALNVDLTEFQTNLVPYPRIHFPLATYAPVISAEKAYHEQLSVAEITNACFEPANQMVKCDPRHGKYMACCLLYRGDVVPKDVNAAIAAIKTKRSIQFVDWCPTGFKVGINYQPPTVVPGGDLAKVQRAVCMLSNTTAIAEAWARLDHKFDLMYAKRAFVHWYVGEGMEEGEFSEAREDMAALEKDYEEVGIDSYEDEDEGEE
UniProt Q3MHM5: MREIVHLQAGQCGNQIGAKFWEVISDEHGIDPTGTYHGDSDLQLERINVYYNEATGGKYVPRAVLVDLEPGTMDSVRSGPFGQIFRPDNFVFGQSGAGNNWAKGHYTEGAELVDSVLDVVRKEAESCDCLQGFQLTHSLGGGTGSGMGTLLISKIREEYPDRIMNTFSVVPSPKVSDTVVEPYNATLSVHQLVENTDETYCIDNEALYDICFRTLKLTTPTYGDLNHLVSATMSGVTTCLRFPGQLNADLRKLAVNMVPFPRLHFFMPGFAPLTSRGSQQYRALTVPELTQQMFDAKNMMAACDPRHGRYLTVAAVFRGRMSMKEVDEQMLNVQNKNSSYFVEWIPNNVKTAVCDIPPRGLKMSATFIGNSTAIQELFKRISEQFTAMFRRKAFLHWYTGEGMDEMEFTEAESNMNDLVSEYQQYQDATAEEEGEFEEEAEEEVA
UniProt P28741: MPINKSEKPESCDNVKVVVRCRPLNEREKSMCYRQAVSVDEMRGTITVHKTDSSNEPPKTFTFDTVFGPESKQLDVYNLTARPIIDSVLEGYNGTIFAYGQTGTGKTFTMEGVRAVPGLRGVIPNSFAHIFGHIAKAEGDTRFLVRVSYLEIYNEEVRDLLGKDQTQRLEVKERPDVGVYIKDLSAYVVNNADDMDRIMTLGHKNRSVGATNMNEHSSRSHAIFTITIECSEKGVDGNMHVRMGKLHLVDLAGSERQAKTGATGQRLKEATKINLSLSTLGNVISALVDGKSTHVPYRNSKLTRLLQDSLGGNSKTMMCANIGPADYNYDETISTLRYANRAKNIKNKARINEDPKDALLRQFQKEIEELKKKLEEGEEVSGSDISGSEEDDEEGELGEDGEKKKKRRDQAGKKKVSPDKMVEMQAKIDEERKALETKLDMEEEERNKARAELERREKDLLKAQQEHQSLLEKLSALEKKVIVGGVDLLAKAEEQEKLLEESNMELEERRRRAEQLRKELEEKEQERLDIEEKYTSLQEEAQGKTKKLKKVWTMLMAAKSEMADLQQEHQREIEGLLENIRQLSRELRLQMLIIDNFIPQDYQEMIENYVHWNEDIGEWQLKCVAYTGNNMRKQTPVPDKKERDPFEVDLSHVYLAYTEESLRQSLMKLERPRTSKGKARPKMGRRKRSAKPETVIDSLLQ

Results are given in words; binding and its absence hold for the method and conditions named. Some results given as binding are weak or reduced against the parent protein; the word gives no strength.

This assay concerns the target microtubules from purified bovine brain tubulin (Taxol-stabilized) (bovine) (UniProt P81948+Q3MHM5). The assay can be described thus: photoaffinity radiolabelling of preformed microtubule–kinesin complexes; 10 μM tubulin (microtubules) + 5 μM kinesin dimer, with or without 1 mM Mg-AMPPNP, ATPase buffer (20 mM HEPES pH 7.2) with 40 μM paclitaxel, 10 μM [3H]AziPm ± 400 μM propofol; UV 350 nm, SDS-PAGE, scintillation counting of the bands; both purified.

For “heterodimeric kinesin-2 KIF3AC (mouse KIF3A-EB1 with KIF3C-EB1) (from UniProt P28741 1-374; O35066 1-396) (complex)”, the binding entry is reported as “binds”. Under “heterodimeric kinesin-2 KIF3AB (mouse KIF3A-AHD with KIF3B-BHD) (from UniProt P28741 1-376; Q61771 1-371) (complex)” stands “binds”.
